Measurements published in PMC3514159.
Results are given in words; binding and its absence hold for the method and conditions named. Some results given as binding are weak or reduced against the parent protein; the word gives no strength.

The chains behind the UniProt entries cited, without tags or fusion partners.
UniProt O95967: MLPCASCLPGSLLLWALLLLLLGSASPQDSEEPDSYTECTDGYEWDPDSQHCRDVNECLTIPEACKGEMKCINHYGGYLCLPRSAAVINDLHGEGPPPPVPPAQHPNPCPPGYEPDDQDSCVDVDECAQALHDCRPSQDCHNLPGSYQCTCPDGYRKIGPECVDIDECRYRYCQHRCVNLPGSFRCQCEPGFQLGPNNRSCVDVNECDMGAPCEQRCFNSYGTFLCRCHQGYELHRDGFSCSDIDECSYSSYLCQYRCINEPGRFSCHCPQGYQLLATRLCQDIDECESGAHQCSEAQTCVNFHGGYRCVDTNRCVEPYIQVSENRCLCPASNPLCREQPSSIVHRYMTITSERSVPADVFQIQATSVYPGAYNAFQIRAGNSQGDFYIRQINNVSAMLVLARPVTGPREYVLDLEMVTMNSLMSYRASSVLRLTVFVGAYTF
UniProt P48059: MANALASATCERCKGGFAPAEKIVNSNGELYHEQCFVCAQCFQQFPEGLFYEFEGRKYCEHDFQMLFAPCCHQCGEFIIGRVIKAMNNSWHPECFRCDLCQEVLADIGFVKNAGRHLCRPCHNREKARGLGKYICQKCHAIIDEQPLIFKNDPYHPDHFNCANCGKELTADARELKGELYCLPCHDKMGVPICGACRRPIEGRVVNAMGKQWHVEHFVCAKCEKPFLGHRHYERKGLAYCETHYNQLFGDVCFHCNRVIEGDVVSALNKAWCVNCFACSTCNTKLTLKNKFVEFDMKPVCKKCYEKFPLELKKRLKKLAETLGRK
UniProt P28799: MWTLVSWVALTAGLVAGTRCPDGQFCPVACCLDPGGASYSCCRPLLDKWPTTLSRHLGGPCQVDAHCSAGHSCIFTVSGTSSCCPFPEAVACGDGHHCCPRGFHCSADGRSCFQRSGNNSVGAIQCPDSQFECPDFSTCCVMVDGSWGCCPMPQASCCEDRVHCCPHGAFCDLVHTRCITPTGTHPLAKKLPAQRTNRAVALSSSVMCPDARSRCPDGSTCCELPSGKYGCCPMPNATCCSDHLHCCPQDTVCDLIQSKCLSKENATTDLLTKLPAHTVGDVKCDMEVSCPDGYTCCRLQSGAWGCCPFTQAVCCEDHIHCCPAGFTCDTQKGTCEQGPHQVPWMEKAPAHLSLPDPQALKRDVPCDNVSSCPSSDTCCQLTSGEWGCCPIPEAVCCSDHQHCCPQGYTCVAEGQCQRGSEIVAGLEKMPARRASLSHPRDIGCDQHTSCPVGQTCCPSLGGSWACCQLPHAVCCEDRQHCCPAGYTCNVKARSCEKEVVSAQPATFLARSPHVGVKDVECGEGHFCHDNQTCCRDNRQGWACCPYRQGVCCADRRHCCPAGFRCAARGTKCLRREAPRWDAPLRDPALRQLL
UniProt P09022: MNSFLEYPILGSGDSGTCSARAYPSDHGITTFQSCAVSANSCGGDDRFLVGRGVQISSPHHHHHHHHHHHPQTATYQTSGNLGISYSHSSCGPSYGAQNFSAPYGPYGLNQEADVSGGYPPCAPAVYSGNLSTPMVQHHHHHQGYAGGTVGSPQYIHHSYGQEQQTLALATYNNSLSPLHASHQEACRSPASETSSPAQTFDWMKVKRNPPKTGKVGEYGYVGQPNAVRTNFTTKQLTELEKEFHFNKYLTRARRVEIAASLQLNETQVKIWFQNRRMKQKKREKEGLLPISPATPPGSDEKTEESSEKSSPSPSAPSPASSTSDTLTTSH

What was measured:
Assay in all cases: two-hybrid; AD-Hoxa1 (Gal4 activation domain) in MATa Y8800 mated with the DB-hORF library in MATα Y8930; 30°C; selection on Sc-L-T-H + 1 mM 3AT, retest on Sc-L-T-H, Sc-L-T-A and Sc-L-T-H-A+3AT
[1] = target: EGF-containing fibulin-like extracellular matrix protein 2 (human) (UniProt O95967)
[2] = target: LIM and senescent cell antigen-like domains 1 (human) (UniProt P48059)
[3] = target: T1, MyoD family inhibitor (human) (UniProt Q99750)
T1 sequence: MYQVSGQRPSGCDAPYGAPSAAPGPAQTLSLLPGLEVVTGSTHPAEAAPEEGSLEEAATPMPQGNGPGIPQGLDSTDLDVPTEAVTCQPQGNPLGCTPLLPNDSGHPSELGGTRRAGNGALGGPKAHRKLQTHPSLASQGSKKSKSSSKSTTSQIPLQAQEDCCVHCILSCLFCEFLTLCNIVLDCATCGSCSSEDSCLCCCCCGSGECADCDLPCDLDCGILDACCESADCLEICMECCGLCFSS

[4] = target: T2, family with sequence similarity 108, member A1 (human) (UniProt Q96GS6)
T2 sequence: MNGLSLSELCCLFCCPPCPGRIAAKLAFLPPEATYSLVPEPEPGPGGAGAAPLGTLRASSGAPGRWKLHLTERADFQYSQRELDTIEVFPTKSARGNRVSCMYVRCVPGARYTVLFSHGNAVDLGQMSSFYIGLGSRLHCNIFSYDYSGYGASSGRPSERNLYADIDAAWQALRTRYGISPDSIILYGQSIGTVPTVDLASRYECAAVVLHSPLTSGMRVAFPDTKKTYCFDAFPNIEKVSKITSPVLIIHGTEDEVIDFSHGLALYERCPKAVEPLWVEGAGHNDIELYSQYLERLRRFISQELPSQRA

granulin (human) = granulin (human) (UniProt P28799)
[5] = target: T3, keratin associated protein 4-12 (human) (UniProt Q9BQ66)
T3 sequence: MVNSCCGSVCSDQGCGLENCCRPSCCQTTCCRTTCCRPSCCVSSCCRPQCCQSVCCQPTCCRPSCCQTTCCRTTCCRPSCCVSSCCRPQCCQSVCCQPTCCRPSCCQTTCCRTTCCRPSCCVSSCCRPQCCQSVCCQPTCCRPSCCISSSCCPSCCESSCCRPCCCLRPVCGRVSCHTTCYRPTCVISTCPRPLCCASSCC

[6] = target: T4, phosphofructokinase, muscle (human) (UniProt P08237)
T4 sequence: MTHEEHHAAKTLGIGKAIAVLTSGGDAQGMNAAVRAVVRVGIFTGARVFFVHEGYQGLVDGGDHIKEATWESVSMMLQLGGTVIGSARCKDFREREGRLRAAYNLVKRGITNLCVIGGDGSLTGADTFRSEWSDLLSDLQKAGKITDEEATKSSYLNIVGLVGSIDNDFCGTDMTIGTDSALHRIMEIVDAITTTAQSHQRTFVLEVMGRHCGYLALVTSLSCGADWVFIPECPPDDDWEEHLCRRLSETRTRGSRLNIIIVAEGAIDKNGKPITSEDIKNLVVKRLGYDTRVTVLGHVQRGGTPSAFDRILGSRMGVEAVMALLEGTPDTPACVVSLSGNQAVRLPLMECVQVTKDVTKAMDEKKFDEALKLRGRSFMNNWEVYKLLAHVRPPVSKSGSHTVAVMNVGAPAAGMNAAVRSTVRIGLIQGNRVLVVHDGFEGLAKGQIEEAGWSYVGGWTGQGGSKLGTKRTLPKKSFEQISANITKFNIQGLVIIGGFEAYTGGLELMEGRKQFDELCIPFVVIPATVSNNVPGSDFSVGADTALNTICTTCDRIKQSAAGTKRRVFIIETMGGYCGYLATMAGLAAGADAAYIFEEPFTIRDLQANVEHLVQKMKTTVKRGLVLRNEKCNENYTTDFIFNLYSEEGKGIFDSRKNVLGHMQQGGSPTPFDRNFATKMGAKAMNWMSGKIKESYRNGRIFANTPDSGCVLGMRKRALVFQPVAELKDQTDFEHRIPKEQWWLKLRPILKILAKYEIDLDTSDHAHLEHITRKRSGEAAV

Measured: binding

Hoxa1 (from UniProt P09022 1-331)
binds: all assays above
